Primary screen of a compound library

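Assay of Toxoplasma gondii numbers, read through their beta-galactosidase reporter with a colour substrate. Tested at 50 µM. Higher reads as fewer parasites (inferred from which compounds were picked for retests). Size under these conditions: about 18,000 compounds, about 170 of them at 50% or above in at least one test.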

Results are given as percent effect.
How 0% and 100% were set is not recorded. Most values in the screen are low, and negative values occur.
This is an unselected part of the compounds tested.

- COCC(C)(NC(=O)c1ccc(Br)cc1Cl)C(N)=O (stereo not drawn) | -13.65%
- COc1cc(CNCCO)c(Cl)cc1OCC(N)=O | 5.521%
- Cc1ccc(C(=O)NCc2ccnc(N(C)C)c2)cn1 | -0.08039%
- COc1ccc(-c2nc(CS(C)(=O)=O)cs2)cc1 | 3.213%
- Cc1ocnc1C(=O)N(CCO)Cc1ccccc1Cl | -4.009%
- COCCc1noc(-c2cnsn2)n1 | 2.227%
- NCC(CO)Cc1ccccn1 (stereo not drawn) | 9.479%
- NS(=O)(=O)C1CCN(Cc2ccc(Br)c(F)c2)C1 (stereo not drawn) | -5.455%
- COc1cccc(CNCCNc2cccc(C)n2)c1 | 13.36%
- COC(=O)N1CCCC(NC(=O)N2CCC2)C1 (stereo not drawn) | -1.679%
- CN(C)CCCNCC(O)COc1ccccc1 (stereo not drawn) | 23.37%
- C[C@@H]1CN(C(=O)c2ccns2)C[C@@]1(O)C1CC1 | -17.6%
- CN(C)c1ccccc1C(=O)N1CCCC(C)(O)CC1 (stereo not drawn) | -1.35%
- Cc1cc(C(=O)NCCc2ccccc2F)[nH]n1 | 14.98%
- Cc1c(Br)cccc1C(=O)NCCCNS(C)(=O)=O | -7.78%
- CN(C(=O)CSc1nnc(N)s1)C1CCS(=O)(=O)C1 (stereo not drawn) | -0.8981%
- Cc1cc(C(N)=O)n[nH]1 | -2.416%
- COCCN1CCC(CNc2cccc(C)n2)C1 (stereo not drawn) | 1.871%
- CNC(=O)NC(C)(C)C(=O)Nc1ccc2c(c1)CCC2 | -8.336%
- Cc1ccc(CNc2nnnn2CCO)cc1 | -15.08%
- Cc1noc(C)c1CNC1=NS(=O)(=O)c2ccccc21 | -8.09%
- CN(C)S(=O)(=O)c1ccc2c(c1)NCC2 | -1.852%
- Cc1ccsc1CNC(=O)C(C)n1cncn1 (stereo not drawn) | 14.14%
- CCC(C(=O)Nc1ccc(C)cc1)N(C)C (stereo not drawn) | -1.57%
- Cn1cc(NC(=O)CCc2ccco2)c(=O)n(C)c1=O | 5.741%
- O=C(NCCn1cncn1)[C@@H](O)Cc1ccccc1 | -8.635%
- CN(C(=O)c1ccc(Cl)cc1)c1nncs1 | 0.4494%
- Cc1cc(=O)[nH]c2ccc(S(N)(=O)=O)cc12 | -25.46%
- CC(=O)NCCCNc1nc2ccccc2o1 | -5.419%
- CC(=O)c1ccc(N2C[C@@H](CN(C)C)[C@@H](CO)C2)nc1 | -3.869%
- CCO[C@H]1CN(C)C[C@@H]1NC(=O)c1nc(C(C)C)cs1 | 18.74%
- CO[C@@H]1CN[C@@H](c2nc(C3CC3)no2)C1 | -3.841%
- NCCN1C(=O)c2ccccc2S1(=O)=O | -10.91%
- CC(C)n1cc(C(=O)NCCN(C)S(C)(=O)=O)cn1 | 16.87%
- CNC(=O)CN(c1ccc(C(F)(F)F)cc1)S(C)(=O)=O | -14.12%
- COCCC1(CO)CCCN(Cc2cnc(C)cn2)C1 (stereo not drawn) | -16.31%
- CCN(CC)CCCNC(=O)c1ccccc1 | 21.18%
- CCC(NC(=O)c1cc(N)[nH]n1)c1nc(C)c[nH]1 (stereo not drawn) | 4.795%
- Cn1ccnc1CN1CCN(Cc2ccncc2)CC1 | -2.921%
- COCCCNC(=O)CN(C)c1ccc2nccn2n1 | -5.653%
- Cn1c(COC(=O)C2(C)CCCC2)cc(=O)n(C)c1=O | 6.414%
- OCCN(CCO)Cc1cc(F)cc(Br)c1 | 1.156%
- Cc1ncncc1C(=O)NCC(C)(C)CN(C)C | 14.32%
- NC(=O)c1cc(Br)cc(S(=O)(=O)NCCF)c1 | 3.903%
- Cc1cc(C)c(CO)c(C)c1CO | 27.02%
- NC1CCCN(Cc2ccccc2OCCO)CC1 (stereo not drawn) | -9.149%
- CCn1ccnc1C1CCN(C(=O)CCOC)CC1 | 1.193%
- OCCOc1ccc(OCCO)cc1 | -1.322%
- CN(C)C(=O)c1csc2c1CCCC2 | -12.96%
- Cc1ccccc1CC(=O)NCCC1CCNC1 (stereo not drawn) | -18.2%
- Cc1nccc(C(=O)NCC(C)(C)CN(C)C)n1 | 2.804%
- CC(c1ccon1)N(C)C(=O)c1cccc(N)n1 (stereo not drawn) | 7.551%
- CC(C)(C)OC(=O)NC1CC2(CNC2)C1 | -10.31%
- NC1CCC(OCC(=O)Nc2nccs2)CC1 (stereo not drawn) | -2.227%
- CN(Cc1nccn1C)C(=O)COCC1CCCO1 (stereo not drawn) | -10.62%
- CCOC(=O)c1ccncc1C(=O)Nc1nccs1 | -2.84%

Once more, the final 5:

| compound | percent effect |
|---|---|
| `CC(c1ccon1)N(C)C(=O)c1cccc(N)n1` (stereo not drawn) | 7.551 |
| `CC(C)(C)OC(=O)NC1CC2(CNC2)C1` | -10.31 |
| `NC1CCC(OCC(=O)Nc2nccs2)CC1` (stereo not drawn) | -2.227 |
| `CN(Cc1nccn1C)C(=O)COCC1CCCO1` (stereo not drawn) | -10.62 |
| `CCOC(=O)c1ccncc1C(=O)Nc1nccs1` | -2.84 |

Measurements from “University of Dundee, Small-Polar-MMV Screening Library” (2021), ChEMBL document CHEMBL3988442.